{
  "sequences": {"note": "The chains behind the UniProt entries cited, without tags or fusion partners.", "UniProt Q96P20": "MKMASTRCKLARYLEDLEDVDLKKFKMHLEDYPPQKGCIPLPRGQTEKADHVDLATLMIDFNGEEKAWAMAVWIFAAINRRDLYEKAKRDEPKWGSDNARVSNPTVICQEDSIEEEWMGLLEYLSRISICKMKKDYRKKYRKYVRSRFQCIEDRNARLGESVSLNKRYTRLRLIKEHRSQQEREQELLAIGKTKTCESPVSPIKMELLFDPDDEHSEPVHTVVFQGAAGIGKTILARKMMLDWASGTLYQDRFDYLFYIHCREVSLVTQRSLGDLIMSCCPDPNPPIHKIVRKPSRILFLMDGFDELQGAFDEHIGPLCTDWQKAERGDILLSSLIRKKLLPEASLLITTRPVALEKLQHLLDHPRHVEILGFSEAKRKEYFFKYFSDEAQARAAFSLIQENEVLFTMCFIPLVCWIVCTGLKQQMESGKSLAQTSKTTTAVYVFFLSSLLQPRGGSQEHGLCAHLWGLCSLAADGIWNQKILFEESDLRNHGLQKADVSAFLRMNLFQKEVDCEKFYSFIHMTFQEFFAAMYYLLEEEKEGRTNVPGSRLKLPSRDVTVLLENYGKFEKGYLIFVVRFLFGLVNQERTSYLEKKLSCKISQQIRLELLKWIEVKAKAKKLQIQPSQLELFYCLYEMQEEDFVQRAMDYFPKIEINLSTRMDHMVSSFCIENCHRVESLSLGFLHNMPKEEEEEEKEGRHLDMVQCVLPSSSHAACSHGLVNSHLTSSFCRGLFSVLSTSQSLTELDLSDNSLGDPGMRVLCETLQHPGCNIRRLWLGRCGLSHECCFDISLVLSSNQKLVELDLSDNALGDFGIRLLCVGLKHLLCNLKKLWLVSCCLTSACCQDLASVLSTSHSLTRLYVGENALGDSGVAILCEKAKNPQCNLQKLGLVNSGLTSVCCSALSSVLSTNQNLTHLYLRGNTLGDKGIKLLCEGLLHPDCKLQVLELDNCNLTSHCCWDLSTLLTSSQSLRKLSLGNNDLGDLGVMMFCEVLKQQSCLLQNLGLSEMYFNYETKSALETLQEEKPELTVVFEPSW"},
  "source": "paper doi:10.1101/2025.03.07.642110",
  "binders": {"B1": {"name": "NLRP10 (protein, UniProt Q86W26 1-655)", "chain": "MAMAKARKPREALLWALSDLEENDFKKLKFYLRDMTLSEGQPPLARGELEGLIPVDLAELLISKYGEKEAVKVVLKGLKVMNLLELVDQLSHICLHDYREVYREHVRCLEEWQEAGVNGRYNQVLLVAKPSSESPESLACPFPEQELESVTVEALFDSGEKPSLAPSLVVLQGSAGTGKTTLARKMVLDWATGTLYPGRFDYVFYVSCKEVVLLLESKLEQLLFWCCGDNQAPVTEILRQPERLLFILDGFDELQRPFEEKLKKRGLSPKESLLHLLIRRHTLPTCSLLITTRPLALRNLEPLLKQARHVHILGFSEEERARYFSSYFTDEKQADRAFDIVQKNDILYKACQVPGICWVVCSWLQGQMERGKVVLETPRNSTDIFMAYVSTFLPPDDDGGCSELSRHRVLRSLCSLAAEGIQHQRFLFEEAELRKHNLDGPRLAAFLSSNDYQLGLAIKKFYSFRHISFQDFFHAMSYLVKEDQSRLGKESRREVQRLLEVKEQEGNDEMTLTMQFLLDISKKDSFSNLELKFCFRISPCLAQDLKHFKEQMESMKHNRTWDLEFSLYEAKIKNLVKGIQMNNVSFKIKHSNEKKSQSQNLFSVKSSLSHGPKEEQKCPSVHGQKEGKDNIAGTQKEASTGKGRGTEETPKNTYI"}},
  "target": "NLRP3 (human (endogenous in THP-1)) (UniProt Q96P20)",
  "assay": "co-IP",
  "note": "No constants are given. Whether binding was seen depends on the method and setting. Binding seen in cells or lysates may run through a third protein. Some binding calls cover weakened binding; strength is not graded here.",
  "data": [
    {"binder": "B1", "values": [
      {"measurement": "binding", "value": "binds"}
    ]}
  ]
}
